Measurements published in patent US20260091050A1, “ADVANTAGEOUS ANTI-HCV COMBINATION THERAPY” (Atea Pharmaceuticals, Inc., priority 2021, published 2026).

Key:
[1] = Accelerated stability (40 ± 2° C./75 ± 5% RH) of Compound 1-A over 6 months; type: physicochemical; settings: 0 month
Procedure: (§1) Three conditions were tested: accelerated stability (40±2° C./[…]) over a 6-month time period, ambient stability (25±2° C./[…]) over a 9-month period, and stability under refrigerator conditions (5±3° C.) over a 9-month time period. The results for accelerated stability, ambient stability, and refrigerator conditions are shown in Table 23, Table 24, and Table 25, respectively.

[2] = Ambient stability (25 ± 2° C./60 ± 5% RH) of Compound 1-A over 9 months; type: physicochemical; settings: 0 month
Procedure: as §1

CNc1nc(N)nc2c1ncn2[C@@H]1O[C@H](CO[P@@](=O)(N[C@@H](C)C(=O)OC(C)C)Oc2ccccc2)[C@@H](O)[C@@]1(C)F [Compound 1-A, isopropyl ((S)-(((2R,3R,4R,5R)-5-(2-amino-6-(methylamino)-9H-purin-9-yl)-4-fluoro-3-hydroxy-4-methyltetrahydrofuran-2-yl)methoxy) (phenoxy)phosphoryl)-L-alaninate hemisulfate]
<1 cfu/g: Microbial Testing Mold and Yeast [1] | Microbial Testing TAMC [1] | Microbial Testing Mold and Yeast [2] | Microbial Testing TAMC [2]
